The results in this text go back to patent US20180264072A1.

The chains behind the UniProt entries cited, without tags or fusion partners. Where a name states a change or a piece, a line headed by the entry shows the natural chain unless it says otherwise.
UniProt Q9Y490: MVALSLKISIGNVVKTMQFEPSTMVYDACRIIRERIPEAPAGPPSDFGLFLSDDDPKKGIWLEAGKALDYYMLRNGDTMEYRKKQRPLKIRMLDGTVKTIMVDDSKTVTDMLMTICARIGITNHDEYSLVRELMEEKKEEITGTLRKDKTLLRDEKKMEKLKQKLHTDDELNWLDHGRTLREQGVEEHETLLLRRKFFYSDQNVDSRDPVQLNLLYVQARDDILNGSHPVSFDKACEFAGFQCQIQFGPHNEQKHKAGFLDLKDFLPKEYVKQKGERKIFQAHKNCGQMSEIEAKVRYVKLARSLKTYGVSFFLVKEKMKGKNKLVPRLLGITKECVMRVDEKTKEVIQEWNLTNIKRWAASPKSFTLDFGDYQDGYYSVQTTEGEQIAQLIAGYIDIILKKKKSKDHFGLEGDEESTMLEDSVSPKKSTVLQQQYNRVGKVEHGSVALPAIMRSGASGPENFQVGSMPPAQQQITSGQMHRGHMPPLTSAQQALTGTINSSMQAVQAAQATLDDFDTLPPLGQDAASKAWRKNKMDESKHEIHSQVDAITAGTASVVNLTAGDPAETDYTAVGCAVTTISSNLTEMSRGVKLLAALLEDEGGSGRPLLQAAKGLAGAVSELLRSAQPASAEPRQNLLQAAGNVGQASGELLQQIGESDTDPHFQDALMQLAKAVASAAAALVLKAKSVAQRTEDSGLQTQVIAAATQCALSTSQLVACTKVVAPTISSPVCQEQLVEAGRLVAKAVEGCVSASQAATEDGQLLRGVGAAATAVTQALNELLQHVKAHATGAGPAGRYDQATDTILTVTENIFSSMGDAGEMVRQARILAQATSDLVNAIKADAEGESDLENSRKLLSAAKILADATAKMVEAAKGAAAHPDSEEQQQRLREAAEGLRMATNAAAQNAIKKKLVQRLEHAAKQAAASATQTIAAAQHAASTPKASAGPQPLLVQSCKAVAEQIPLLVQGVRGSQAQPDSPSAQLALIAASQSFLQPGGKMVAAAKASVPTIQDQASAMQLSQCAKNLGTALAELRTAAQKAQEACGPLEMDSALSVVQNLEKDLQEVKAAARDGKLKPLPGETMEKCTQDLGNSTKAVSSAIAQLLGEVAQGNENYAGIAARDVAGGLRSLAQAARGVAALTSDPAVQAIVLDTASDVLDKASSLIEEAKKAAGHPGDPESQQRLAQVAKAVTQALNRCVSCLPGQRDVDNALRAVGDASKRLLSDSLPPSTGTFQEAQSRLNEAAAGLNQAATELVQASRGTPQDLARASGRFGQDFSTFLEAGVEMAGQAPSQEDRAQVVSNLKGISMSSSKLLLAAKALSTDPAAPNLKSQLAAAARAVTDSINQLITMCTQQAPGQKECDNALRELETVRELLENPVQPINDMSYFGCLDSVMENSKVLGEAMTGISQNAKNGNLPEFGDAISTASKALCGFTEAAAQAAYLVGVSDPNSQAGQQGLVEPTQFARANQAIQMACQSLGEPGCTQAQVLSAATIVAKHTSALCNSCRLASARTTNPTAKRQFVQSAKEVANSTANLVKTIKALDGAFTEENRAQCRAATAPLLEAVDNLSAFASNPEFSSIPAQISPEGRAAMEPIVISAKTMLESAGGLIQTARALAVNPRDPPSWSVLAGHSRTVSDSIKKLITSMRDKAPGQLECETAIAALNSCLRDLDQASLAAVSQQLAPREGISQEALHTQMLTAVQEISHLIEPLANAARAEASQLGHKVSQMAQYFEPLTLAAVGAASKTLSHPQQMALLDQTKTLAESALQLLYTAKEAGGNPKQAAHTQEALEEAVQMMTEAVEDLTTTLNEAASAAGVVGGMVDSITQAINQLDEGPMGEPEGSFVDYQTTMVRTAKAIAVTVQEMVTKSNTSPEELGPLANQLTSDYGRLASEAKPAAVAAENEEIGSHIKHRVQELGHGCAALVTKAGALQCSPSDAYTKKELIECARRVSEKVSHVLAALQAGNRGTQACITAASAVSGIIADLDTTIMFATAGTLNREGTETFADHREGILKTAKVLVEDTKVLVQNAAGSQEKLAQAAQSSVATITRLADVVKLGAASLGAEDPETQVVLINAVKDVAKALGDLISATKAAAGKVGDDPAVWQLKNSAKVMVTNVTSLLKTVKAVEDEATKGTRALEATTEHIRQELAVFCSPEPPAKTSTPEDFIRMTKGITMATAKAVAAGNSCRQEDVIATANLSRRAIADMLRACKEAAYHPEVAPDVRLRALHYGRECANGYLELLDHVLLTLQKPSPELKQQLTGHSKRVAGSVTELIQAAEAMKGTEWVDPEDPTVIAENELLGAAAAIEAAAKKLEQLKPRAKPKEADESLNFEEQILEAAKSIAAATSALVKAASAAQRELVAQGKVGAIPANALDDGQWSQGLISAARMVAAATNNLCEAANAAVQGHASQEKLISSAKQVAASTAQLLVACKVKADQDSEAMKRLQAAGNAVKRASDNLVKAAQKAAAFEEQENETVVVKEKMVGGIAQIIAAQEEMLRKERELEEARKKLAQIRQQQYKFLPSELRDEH
UniProt P18010: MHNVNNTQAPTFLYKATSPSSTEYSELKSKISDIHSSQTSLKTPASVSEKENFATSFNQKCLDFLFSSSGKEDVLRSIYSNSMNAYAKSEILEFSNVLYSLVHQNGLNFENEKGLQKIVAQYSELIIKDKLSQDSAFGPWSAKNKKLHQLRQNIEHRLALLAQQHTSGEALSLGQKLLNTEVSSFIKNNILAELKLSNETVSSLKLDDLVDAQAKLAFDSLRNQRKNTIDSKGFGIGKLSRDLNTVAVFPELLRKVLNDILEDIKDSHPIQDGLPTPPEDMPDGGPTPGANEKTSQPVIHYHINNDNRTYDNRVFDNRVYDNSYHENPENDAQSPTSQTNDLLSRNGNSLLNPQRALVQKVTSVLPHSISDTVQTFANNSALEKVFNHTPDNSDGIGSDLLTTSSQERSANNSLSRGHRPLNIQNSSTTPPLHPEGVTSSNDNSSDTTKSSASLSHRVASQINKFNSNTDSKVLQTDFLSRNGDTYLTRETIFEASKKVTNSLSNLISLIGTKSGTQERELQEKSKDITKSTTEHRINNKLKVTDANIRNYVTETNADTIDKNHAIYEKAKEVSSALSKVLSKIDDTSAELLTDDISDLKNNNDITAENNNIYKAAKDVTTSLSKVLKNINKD

In this assay the target is talin VBS1 (482-636), yeast two-hybrid prey region (human) (UniProt Q9Y490). The experiment in a line: yeast two-hybrid screen, human placental cDNA library.

No constants are given. Whether binding was seen depends on the method and setting. Some results given as binding are weak or reduced against the parent protein; the word gives no strength.

Turning to “IpaA(1-565) yeast two-hybrid bait (from UniProt P18010 1-565)”, the binding entry is on record as “binds”.
